Measured data: PubChem BioAssay AID686937 (Drosophila RNAi Screening Center, 2013)
Assay: 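Genes in the fly needed for secretion of protein constitutively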 (primary screen). System: Drosophila S2 cells expressing secreted horseradish peroxidase. Reagent: long dsRNA against Drosophila genes. Timing: about 5.5 days (5 days dsRNA, then 12 h reporter induction). Challenge: reporter expression induced after 5 days of dsRNA, read 12 h later; inducer not stated. Measured: 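After 5 days of dsRNA and 12 h of reporter induction, medium peroxidase read by chemiluminescence and scored as per-plate z-score; higher values mean more reporter released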. Direction: z-score: higher = more reporter secreted into medium.
In all, the deposit lists about 23,000 reagents; this is an unselected part of those with a known target gene and a result. 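Reduced-secretion tags in replicate 1 do not always agree with the z-scores; no criterion for assigning the tags was given.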 Reagents against one gene are numbered here. Further read-outs or replicates are left out here. The record does not give: the amount of reagent.

no.	Target gene	reagent	z-score, replicate 1
1	to (GeneID 43036)	1	0.27
2	fw (GeneID 32162)	1	0.39
3	hep (GeneID 32256)	1	0.12
4	hep (GeneID 32256)	2	0.38
5	CG3309 (GeneID 31450)	1	0.49
6	CG3434 (GeneID 39098)	1	0.21
7	ZnT77C (GeneID 40271)	1	0.13
8	ZnT77C (GeneID 40271)	2	0.35
9	CG31075 (GeneID 43244)	1	0.28
10	S-Lap4 (GeneID 326188)	1	0.62
11	Hmgcr (GeneID 42803)	1	-6.64
12	zuc (GeneID 34609)	1	0.28
13	Odc2 (GeneID 35767)	1	0.15
14	CG7295 (GeneID 33365)	1	0.22
15	CG10104 (GeneID 36602)	1	0.39
16	CG5888 (GeneID 34980)	1	-0.21
17	Ca-alpha1D (GeneID 34950)	1	0.24
18	wus (GeneID 32683)	1	0.39
19	Oseg6 (GeneID 37245)	1	0.17
20	CG17292 (GeneID 34152)	1	0.27
21	arg (GeneID 46717)	1	0.3
22	Rfx (GeneID 41266)	1	0.28
23	CG31955 (GeneID 319045)	1	0.29
24	Mps1 (GeneID 42126)	1	0.06
25	CSN8 (GeneID 49077)	1	-0.46
26	Cyp4d2 (GeneID 31192)	1	0.44
27	Ag5r (GeneID 44631)	1	0.36
28	Cib2 (GeneID 37363)	1	0.43
29	CG15894 (GeneID 31574)	1	0.47
30	CG15894 (GeneID 31574)	2	-2.35
31	CG1316 (GeneID 38526)	1	-0.67
32	snama (GeneID 37857)	1	0.63
33	l(2)34Fc (GeneID 34838)	1	-0.06
34	CG43058 (GeneID 12798445)	1	-0.51
35	CG1324 (GeneID 33060)	1	-0.25
36	loaf (GeneID 39325)	1	0.28
37	Obp83cd (GeneID 40746)	1	0.14
38	CG1701 (GeneID 35661)	1	0.37
39	CG1024 (GeneID 40789)	1	-0.07
40	Mcm3 (GeneID 31449)	1	0.19
41	FIG4 (GeneID 33658)	1	0.2
42	CG7290 (GeneID 40211)	1	0.3
43	tok (GeneID 42944)	1	0.37
44	Dbp45A (GeneID 35917)	1	0.05
45	ocn (GeneID 43567)	1	0.26
46	meigo (GeneID 42510)	1	-0.87
47	GstE13 (GeneID 35928)	1	0.46
48	CG14125 (GeneID 39359)	1	0.29
49	gammaTub37C (GeneID 35199)	1	0.21
50	Dera (GeneID 36358)	1	0.38
51	Dera (GeneID 36358)	2	0.16
52	Hip1 (GeneID 39450)	1	0.16
53	CG10909 (GeneID 41581)	1	-0.01
54	PrBP (GeneID 34196)	1	0.73
55	DNAlig4 (GeneID 32322)	1	0.19
56	pinta (GeneID 42635)	1	0.25

Individual results from the list.
Entry for CG1324 (GeneID 33060) in “z-score, replicate 1”: -0.25
Value of Oseg6 (GeneID 37245) in “z-score, replicate 1”: 0.17
Under “z-score, replicate 1”, meigo (GeneID 42510) has -0.87
